{"source": "paper PMC12430662", "binders": {"B1": {"name": "CPK2-nLUC (enzyme, UniProt Q38870 1-646)", "chain": "MGNACVGPNISGNGFLQTVTAAMWRPRIGAEQASSSSHGNGQVSKEAASEPATDQVQNKPPEPITMPSSKTNPETKLKPDLEIQPEEKKEKVLAEETKQKVVPEESKQEVPPEESKREVVVQPESAKPETKSESKPETTKPETTSETKPETKAEPQKPKHMRRVSSAGLRTESVLQRKTENFKEFYSLGRKLGQGQFGTTFLCLEKGTGNEYACKSISKRKLLTDEDVEDVRREIQIMHHLAGHPNVISIKGAYEDVVAVHLVMELCSGGELFDRIIQRGHYTERKAAELARTIVGVLEACHSLGVMHRDLKPENFLFVSREEDSLLKTIDFGLSMFFKPDEVFTDVVGSPYYVAPEVLRKRYGPESDVWSAGVIVYILLSGVPPFWAETEQGIFEQVLHGDLDFSSDPWPSISESAKDLVRKMLVRDPKRRLTAHQVLCHPWVQIDGVAPDKPLDSAVLSRMKQFSAMNKFKKMALRVIAESLSEEEIAGLKQMFKMIDADNSGQITFEELKAGLKRVGANLKESEILDLMQAADVDNSGTIDYKEFIAATLHLNKIEREDHLFAAFSYFDKDESGFITPDELQQACEEFGVEDARIEEMMRDVDQDKDGRIDYNEFVAMMQKGSIMGGPVKMGLENSISISLKH"}, "B2": {"name": "MBP-CPK2-His (enzyme, UniProt Q38870 1-646)", "chain": "B1 chain"}, "B3": {"name": "CPK2-HA (enzyme, UniProt Q38870 1-646)", "chain": "B1 chain"}}, "key": {"[1]": {"biological_target": "T1, ABI5-cLUC (Arabidopsis thaliana) (UniProt Q9SJN0)", "T1 sequence": "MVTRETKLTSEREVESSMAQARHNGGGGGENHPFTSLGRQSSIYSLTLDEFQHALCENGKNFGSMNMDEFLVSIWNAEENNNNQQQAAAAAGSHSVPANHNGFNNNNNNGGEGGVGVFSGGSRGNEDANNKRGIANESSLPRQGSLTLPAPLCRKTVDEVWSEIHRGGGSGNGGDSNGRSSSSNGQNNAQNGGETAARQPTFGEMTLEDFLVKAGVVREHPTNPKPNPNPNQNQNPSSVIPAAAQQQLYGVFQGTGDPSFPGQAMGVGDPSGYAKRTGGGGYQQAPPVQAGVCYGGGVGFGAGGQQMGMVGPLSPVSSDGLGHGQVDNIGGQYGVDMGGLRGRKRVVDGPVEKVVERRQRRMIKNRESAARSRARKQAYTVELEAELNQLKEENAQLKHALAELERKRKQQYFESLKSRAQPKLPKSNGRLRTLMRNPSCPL", "assay": "split reporter; luciferase complementation imaging; nLUC and cLUC fusions co-expressed in N. benthamiana leaves by Agrobacterium infiltration; after 2 days 1 mM luciferin sprayed, 5-10 min dark, CCD imaging"}, "[2]": {"biological_target": "T2, GST-ABI5 (Arabidopsis thaliana) (UniProt Q9SJN0)", "T2 sequence": "T1 sequence", "assay": "pull-down; 2 ug MBP-CPK2-His incubated with 1.5 ug ABI5-GST (or GST), captured on GST beads at 4 C for 1 h, washed four times with PBS, eluted with 10 mM reduced glutathione; immunoblot with anti-His and anti-GST; both purified"}, "[3]": {"biological_target": "T3, ABI5-GFP (Arabidopsis thaliana) (UniProt Q9SJN0)", "T3 sequence": "T1 sequence", "assay": "co-IP; CPK2-HA co-expressed with ABI5-GFP or GFP in N. benthamiana leaves; extract in IP buffer (50 mM Tris-HCl pH 7.5, 150 mM NaCl, 0.5 mM EDTA, 0.5% Triton X-100) incubated with anti-GFP magnetic beads overnight at 4 C; immunoblot with anti-GFP and anti-HA"}}, "note": "No constants are given. Whether binding was seen depends on the method and setting. For part of these data: In cells and extracts the contact can be indirect. Some binding calls cover weakened binding; strength is not graded here. Sequences can lack the tags named with a protein.", "data": [{"binder": "B1", "values": [{"measurement": "binding", "setting": "[1]", "value": "binds"}]}, {"binder": "B2", "values": [{"measurement": "binding", "setting": "[2]", "value": "binds"}]}, {"binder": "B3", "values": [{"measurement": "binding", "setting": "[3]", "value": "binds"}]}]}
